{"source": "PubChem BioAssay AID652243 (Drosophila RNAi Screening Center, 2013)", "test": "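Knock-downs that decrease or increase androgen receptor reporter signal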 (primary screen)", "cell system": "Drosophila S2R+ cells", "reagents": "long dsRNA against Drosophila genes", "time to read-out": "72 h (48 h, then 24 h hormone)", "challenge": "synthetic androgen R1881 at 10 nM for 24 h", "measured": "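Firefly light from an androgen-responsive reporter and Renilla control light per well, raw and unnormalised, for each of two replicates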", "reading the numbers": "firefly reporter light: higher = more light from androgen-responsive reporter; Renilla control light: higher = more constitutive control signal (cell number, transfection)", "rule for the call": "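Across duplicate plates, a knock-down whose log firefly/Renilla ratio shifted a set fold down or up from the GFP/LacZ control mean was a hit; the downward cut appears as both 1.5 and 3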", "meaning of the calls": "active = hit: reporter lowered or raised; inactive = no hit", "note": "The screen tested about 24,000 reagents; below is an unselected part of those with a known target gene and a result. Of all reagents, 246 (1%) got an active call. 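Plates not normalised; calls are printed but the firefly/Renilla ratio behind them is not deposited; fold cut for lowering reported inconsistently.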 Raw values vary from plate to plate and are shown uncorrected. Unmarked entries are inactive. Names joined by + are all predicted targets of the reagent. Not given: the amount of reagent."}
{"gene knocked down": "CG9304", "amplicon": "DRSC04538", "firefly reporter light, replicate 1": 1.89e5, "firefly reporter light, replicate 2": 1.69e5, "Renilla control light, replicate 1": 1.17e6, "Renilla control light, replicate 2": 9.70e5}
{"gene knocked down": "CG9304", "amplicon": "DRSC26210", "firefly reporter light, replicate 1": 4.83e5, "firefly reporter light, replicate 2": 3.43e5, "Renilla control light, replicate 1": 4.90e5, "Renilla control light, replicate 2": 5.30e5}
{"gene knocked down": "U2af50", "amplicon": "DRSC20297", "firefly reporter light, replicate 1": 76826, "firefly reporter light, replicate 2": 65222, "Renilla control light, replicate 1": 5.57e5, "Renilla control light, replicate 2": 5.10e5}
{"gene knocked down": "U2af50", "amplicon": "DRSC22867", "firefly reporter light, replicate 1": 4.69e5, "firefly reporter light, replicate 2": 1.09e6, "Renilla control light, replicate 1": 4.29e5, "Renilla control light, replicate 2": 6.41e5}
{"gene knocked down": "Gr28a", "amplicon": "DRSC02290", "firefly reporter light, replicate 1": 1.97e5, "firefly reporter light, replicate 2": 1.88e5, "Renilla control light, replicate 1": 1.60e6, "Renilla control light, replicate 2": 1.35e6}
{"gene knocked down": "Gclc", "amplicon": "DRSC18666", "firefly reporter light, replicate 1": 3.94e5, "firefly reporter light, replicate 2": 4.62e5, "Renilla control light, replicate 1": 3.71e6, "Renilla control light, replicate 2": 4.24e6}
{"gene knocked down": "CG12708 + CG15646", "amplicon": "DRSC23549", "firefly reporter light, replicate 1": 8.06e5, "firefly reporter light, replicate 2": 5.58e5, "Renilla control light, replicate 1": 1.06e6, "Renilla control light, replicate 2": 7.99e5}
{"gene knocked down": "per", "amplicon": "DRSC18818", "firefly reporter light, replicate 1": 3.16e5, "firefly reporter light, replicate 2": 3.70e5, "Renilla control light, replicate 1": 3.36e6, "Renilla control light, replicate 2": 3.26e6}
{"gene knocked down": "per", "amplicon": "DRSC26579", "firefly reporter light, replicate 1": 1.93e5, "firefly reporter light, replicate 2": 2.49e5, "Renilla control light, replicate 1": 4.96e5, "Renilla control light, replicate 2": 4.87e5}
{"gene knocked down": "rtp", "amplicon": "DRSC12132", "firefly reporter light, replicate 1": 39332, "firefly reporter light, replicate 2": 53089, "Renilla control light, replicate 1": 4.54e5, "Renilla control light, replicate 2": 4.74e5}
{"gene knocked down": "CG42458", "amplicon": "DRSC23129", "firefly reporter light, replicate 1": 3.78e5, "firefly reporter light, replicate 2": 3.77e5, "Renilla control light, replicate 1": 9.05e5, "Renilla control light, replicate 2": 1.13e6}
{"gene knocked down": "CG42458", "amplicon": "DRSC23261", "firefly reporter light, replicate 1": 6.87e5, "firefly reporter light, replicate 2": 6.38e5, "Renilla control light, replicate 1": 1.19e6, "Renilla control light, replicate 2": 1.10e6}
{"gene knocked down": "CG42458", "amplicon": "DRSC26691", "firefly reporter light, replicate 1": 3.01e5, "firefly reporter light, replicate 2": 2.87e5, "Renilla control light, replicate 1": 8.04e5, "Renilla control light, replicate 2": 8.08e5}
{"gene knocked down": "CG42458", "amplicon": "DRSC29831", "firefly reporter light, replicate 1": 3.95e5, "firefly reporter light, replicate 2": 3.63e5, "Renilla control light, replicate 1": 1.44e6, "Renilla control light, replicate 2": 1.28e6}
{"gene knocked down": "CG42500", "amplicon": "DRSC14822", "firefly reporter light, replicate 1": 1.54e5, "firefly reporter light, replicate 2": 1.59e5, "Renilla control light, replicate 1": 2.61e6, "Renilla control light, replicate 2": 2.81e6}
{"gene knocked down": "Rh5", "amplicon": "DRSC03412", "firefly reporter light, replicate 1": 1.12e6, "firefly reporter light, replicate 2": 5.16e5, "Renilla control light, replicate 1": 1.38e6, "Renilla control light, replicate 2": 1.07e6}
{"gene knocked down": "Rh5", "amplicon": "DRSC25429", "firefly reporter light, replicate 1": 7.41e5, "firefly reporter light, replicate 2": 3.45e5, "Renilla control light, replicate 1": 2.29e6, "Renilla control light, replicate 2": 7.22e5}
{"gene knocked down": "Tsc1", "amplicon": "DRSC16890", "firefly reporter light, replicate 1": 59813, "firefly reporter light, replicate 2": 65200, "Renilla control light, replicate 1": 5.10e5, "Renilla control light, replicate 2": 5.47e5}
{"gene knocked down": "Tsc1", "amplicon": "DRSC27643", "firefly reporter light, replicate 1": 3.57e5, "firefly reporter light, replicate 2": 3.96e5, "Renilla control light, replicate 1": 6.17e5, "Renilla control light, replicate 2": 6.74e5}
{"gene knocked down": "CG7997", "amplicon": "DRSC07052", "firefly reporter light, replicate 1": 1.04e6, "firefly reporter light, replicate 2": 9.48e5, "Renilla control light, replicate 1": 1.75e6, "Renilla control light, replicate 2": 1.37e6}
{"gene knocked down": "CG7997", "amplicon": "DRSC25706", "firefly reporter light, replicate 1": 8.04e5, "firefly reporter light, replicate 2": 6.85e5, "Renilla control light, replicate 1": 6.81e5, "Renilla control light, replicate 2": 1.20e6}

In a second layout: 3 of the entries above.
CG42500 [DRSC14822]
- firefly reporter light, replicate 1: 1.54e5
- firefly reporter light, replicate 2: 1.59e5
- Renilla control light, replicate 1: 2.61e6
- Renilla control light, replicate 2: 2.81e6

Rh5 [DRSC03412]
- firefly reporter light, replicate 1: 1.12e6
- firefly reporter light, replicate 2: 5.16e5
- Renilla control light, replicate 1: 1.38e6
- Renilla control light, replicate 2: 1.07e6

Rh5 [DRSC25429]
- firefly reporter light, replicate 1: 7.41e5
- firefly reporter light, replicate 2: 3.45e5
- Renilla control light, replicate 1: 2.29e6
- Renilla control light, replicate 2: 7.22e5
